Source: ChEMBL document CHEMBL3988442, “University of Dundee, Small-Polar-MMV Screening Library” (2021).

The chains behind the UniProt entries cited, without tags or fusion partners.
UniProt E9BF75, entry or part of it: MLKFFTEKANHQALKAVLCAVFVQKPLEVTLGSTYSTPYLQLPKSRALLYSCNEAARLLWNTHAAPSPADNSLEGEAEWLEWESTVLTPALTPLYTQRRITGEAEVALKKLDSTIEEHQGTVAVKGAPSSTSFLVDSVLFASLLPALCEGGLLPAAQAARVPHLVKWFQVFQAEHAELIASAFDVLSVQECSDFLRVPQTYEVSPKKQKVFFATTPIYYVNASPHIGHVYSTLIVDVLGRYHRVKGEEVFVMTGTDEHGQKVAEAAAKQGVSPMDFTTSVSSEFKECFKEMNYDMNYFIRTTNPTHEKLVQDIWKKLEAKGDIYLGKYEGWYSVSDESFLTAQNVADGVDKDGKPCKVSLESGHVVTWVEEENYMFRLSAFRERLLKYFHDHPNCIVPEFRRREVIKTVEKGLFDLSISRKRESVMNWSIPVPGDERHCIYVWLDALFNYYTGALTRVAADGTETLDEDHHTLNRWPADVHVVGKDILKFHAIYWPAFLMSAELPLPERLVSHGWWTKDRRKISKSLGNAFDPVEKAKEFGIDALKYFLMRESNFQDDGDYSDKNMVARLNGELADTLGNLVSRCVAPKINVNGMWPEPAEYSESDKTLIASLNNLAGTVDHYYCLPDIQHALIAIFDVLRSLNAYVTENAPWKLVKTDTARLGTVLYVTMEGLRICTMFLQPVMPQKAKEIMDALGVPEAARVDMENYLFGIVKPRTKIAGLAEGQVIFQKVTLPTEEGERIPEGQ

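Methionyl-tRNA synthetase (putative), Leishmania donovani (UniProt E9BF75). Primary screen of methionyl-tRNA synthetase; the read-out is not stated. The test concentration is not given. The values are filed as inhibition. Of about 68,000 compounds tested this way, about 24 (0.035%) reached 50% or more in at least one test.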

Results are percentages, as filed. The record does not define 0% and 100%; most values in the screen are far below 50% and negative numbers occur (in some assays of this library far below -100). This is an unselected part of the compounds tested.

Compound | Inhibition
N#CCCN(Cc1ccco1)C(=O)C1CCCc2ccccc21 (centres undefined) | 5.525
CC(C)Cc1noc(CN2CCCN(C(=O)c3cccc(Cl)c3)CC2)n1 | 8.357
Cc1cc(C)c(CNC(=O)NCc2ccc3c(c2)OCCO3)c(=O)[nH]1 | 26.82
CC(C)c1nc(C2CCCN(Cc3nnc(C4CC4)o3)C2)no1 (centres undefined) | 4.196
O=C(c1cccnc1)N1CCC2(CC1)COC(COc1ccccn1)C2 (centres undefined) | 10.46
CC(=O)c1ccc(C(=O)NCc2cccnc2N2CCCC(O)C2)s1 (centres undefined) | 9.172
CC(C)OC(=O)N1CCC(Cc2cccc(C(N)=O)c2)C1 (centres undefined) | 4.682
Cc1nc(C)n(CCCNC(=O)C(C)n2ccnc2C(C)C)n1 (centres undefined) | 15.32
Cc1ccc(OCCN(C)C(=O)CCCN2CCCC2=O)c(C)c1 | 10.74
O=C(Cn1cccc2oc(=O)nc1-2)NCC1Cc2ccccc2O1 (centres undefined) | 10.86
COc1cc(CN(C)Cc2ccncc2)c(SC)cc1OC | 13.71
CC(=O)NC1CCN(c2cc(C3CCNCC3)nc(C)n2)C1 (centres undefined) | 10.8
Cc1ccc(N2CCCC3(CCCC(=O)N3)C2)nn1 (centres undefined) | 16.3
CN(Cc1ccccc1)C1(C(=O)NCC(N)=O)Cc2ccccc2C1 | -3.425
O=C(NC1CC1)c1nc(COc2ccc3c(c2)OCO3)no1 | 7.494
CCN(CC1CCOC1)C(=O)c1ccc(COc2ccccc2C#N)o1 (centres undefined) | 1.818
CN1C[C@H](O)[C@]2(CCN(C(=O)COc3ccccc3)C2)S1(=O)=O | 10
Cc1ncc2c(n1)CN(C(C(N)=O)c1ccccc1)CC2 (centres undefined) | 15.32
O=C(C1CSc2ccccc2O1)N1CCN(CCO)CC1 (centres undefined) | 8.871
CN(Cc1ccc(N2CCOCC2)cc1)Cc1noc(C(C)(C)C)n1 | 0.8174
Cc1ccc(C#N)cc1NC(=O)NC1CCCN(c2ncccn2)C1 (centres undefined) | 15.68
CN1CC2(CCN(Cc3ccoc3)CC2)COc2ccccc2S1(=O)=O | 15.99
Fc1cccc(C(NCc2ncc[nH]2)c2ccccc2)c1 (centres undefined) | 8.696
CC(C)c1noc(C2CCN(S(=O)(=O)c3cccs3)CC2)n1 | -13.26
COc1ccc2cc(C(=O)NCCc3nc(C)no3)[nH]c2c1 | 4.7
CCC(C)[C@H](NC(=O)c1cc(Br)ccc1-n1cnnn1)C(=O)OC (some centres undefined) | 0.4149
CC(C)(C)C(=O)NCC(=O)Nc1cccnc1 | 13.5
Cn1cc(C(=O)NCc2ccc(N3CCCC3)nc2)ccc1=O | 22.83
CCC(C)c1noc(C2CCN(C(=O)Cn3nc(C)cc3C)CC2)n1 (centres undefined) | -28.89
CCC(CC)NC(=O)c1cncc(Br)c1 | 6.948
CCOc1ccc(Cl)c(C(=O)N2CCCC(c3ccn[nH]3)C2)n1 (centres undefined) | 13.7
Cc1ccc(O)c(C(=O)N2CCC3(CCCNC3)C2)c1 (centres undefined) | 13.55
N#Cc1cc(NC(=O)c2ccccn2)ccc1N1CCC(O)CC1 | 10.33
O=C(CCCc1cn[nH]c1)N1C[C@@H](CN2CCCCCC2)[C@@H](CO)C1 | 6.4
Cc1ccc(C2CN(C(=O)NCc3nnc4ccccn34)CCO2)o1 (centres undefined) | 6.529
O=C(Cn1ccc2ccc(Cl)cc21)NCc1ccc(C(=O)O)cc1 | 14.58
CN1CC(=O)N(c2ccccc2)CC12CCN(C(=O)CC1CC1)C2 (centres undefined) | 9.375
COCc1cncc2c1CCN(C(=O)c1ccsc1)C2 | 4.511
CCc1nnc(CN2CCc3ccc(S(N)(=O)=O)cc32)o1 | 6.425
O=C1[C@H]2CN(C(=O)[C@H]3CCCO3)C[C@H]2CN1CC1CC1 | 16.25
COCC(C)NC(=O)CN1CCC2(CC1)OCCO2 (centres undefined) | 13.04
CC(C)n1cc(N2CC(C(=O)N3CCCC3)CC2=O)cn1 (centres undefined) | 11.05
Cc1[nH]c2nc(CNc3cccc(Cl)c3)nn2c(=O)c1C | 17.31
CC(C)c1nc(CN(C)Cc2ccc(F)cc2)cs1 | 13.15
CNS(=O)(=O)CCCN1CCCC1c1noc(C2CC2)n1 (centres undefined) | 6.103
CCOc1cncc(N(C)CC(=O)NC)n1 | 13.71
Cc1ccc(-c2cc(-c3nc(CN4CCN(C)CC4)no3)n[nH]2)cc1 | 13.87
Cn1c(N)nnc1SCc1ccc(Cl)cc1Br | 24.05
CSc1nccc(NCc2cc3n(n2)CCCN(S(C)(=O)=O)C3)n1 | 8.791
CN(C)C(=O)C1CCCN1c1ccnc2ccsc12 (centres undefined) | 6.069
COc1c(CNCc2cccc(Cn3cccn3)c2)c(C)nn1C | 26.67
O=C(Cn1cc(C(=O)O)ccc1=O)NCc1ccc(F)c(Cl)c1 | 3.734
CC(=O)c1ccc(OCC(=O)NS(=O)(=O)c2ccc(Cl)s2)cc1 | 5.541
CC(O)c1cccc(OCc2ccon2)c1 (centres undefined) | 13.73
CCCn1cc(C(=O)NCC(=O)NC2CC2)c(C)n1 | 21.4
CC(Cn1cccn1)NC(=O)NCc1ccoc1 (centres undefined) | 15.47
CC(Cn1cccn1)NCc1csc(-c2ccccc2)n1 (centres undefined) | 6.923
COCc1c(Cl)cccc1NC(=O)CNC(=O)C(C)(C)C | 16.1
Cn1cccc(NC(=O)N2CCC(COCc3ccccc3)C2)c1=O (centres undefined) | 2.514
Cn1ncc2c1C(COCC1CC1)CN(S(=O)(=O)C1CC1)C2 (centres undefined) | 5.397
CCc1nc(CN2CCCC2C(=O)NC)cs1 (centres undefined) | 8.657
COCCn1ccc(NCc2scnc2C)n1 | 20.39
c1nc(CCC2CCCCN2)cc(N2CCCC2)n1 (centres undefined) | 11.98
O=c1c2cnc(N3CCCCC3)nc2ccn1-c1ccccc1 | 4.564
N#Cc1cccc(S(=O)(=O)NC(=O)C2CC(c3ccccc3)=NO2)c1 (centres undefined) | 12.59
Cc1nnc2n1CCN(C(=O)C1CCC(n3cccc3)CC1)C2 (centres undefined) | 16.25
O=C1N(Cc2cccc(Cl)c2)CCC12CCCNC2 (centres undefined) | 12.32
Cc1nc2c(N(CCC(N)=O)CCc3ccccc3)ncnc2o1 | -1.083
Cc1noc2nc(C3CCN(CC4=CCCOC4)CC3)cc(C(F)F)c12 | 21.58
Fc1cc(CNc2nncs2)ccc1Cl | 12.23
COCCCSc1ccc(NCc2scnc2C)cc1 | 8.967
COCc1cccc(NS(=O)(=O)c2cc(C(=O)O)cs2)c1 | 13.5
CCCS(=O)(=O)N1CCN(c2cc(-n3cnc(C)c3C)nc(C)n2)CC1 | -2.362
O=C(Nc1ccc(-c2csnn2)cc1)N1CC[C@H](O)C1 | 20.41
N[C@H]1CCCN(S(=O)(=O)c2ccc(C(=O)NCC(F)F)cc2)C1 | 3.75
CCc1noc(Cn2c(=O)c3c(C(F)(F)F)cc(C)nc3n2C)n1 | 3.133
Cc1nnc(CN2CCCC(c3cc(C(N)=O)[nH]n3)C2)o1 (centres undefined) | 1.961
NC(=O)c1noc(Cn2ccc3ccccc3c2=O)n1 | 0.9804
Cc1cc(O)ncc1NS(=O)(=O)c1cccc(F)c1F | 14.5
O=C(NCC(=O)N1CCCC1Cc1cccc(F)c1)C1CCCC1 (centres undefined) | 7.796
CCn1nnc2c1C(COC)CN(Cc1ccsc1)C2 (centres undefined) | 13.01
CNc1cc2c(nn1)CCN(C(=O)c1ccc(-n3nccc3C)cc1)C2 | 18.75
CCc1nc2ccccc2c(=O)n1CC1(O)CCN(C(=O)C2CC2)CC1 | 11.46
CCOc1ccc(NC(=O)N2CCC(n3cncn3)CC2)cc1Cl | 7.463
O=C1CC(c2ccc3c(c2)OCO3)c2cn[nH]c2N1 (centres undefined) | 12
COc1ccc(CCNC(=O)Nc2cc(C)nn2C)cc1 | 8.614
Cc1nc(CN2CCN(C(=O)NC(C)c3cccnc3)CC2)cs1 (centres undefined) | 5.464
O=C(NCCc1cccs1)NCC(O)c1cccc(F)c1 (centres undefined) | 22.22
CC(C)c1nc(CSc2nnc(Cn3cncn3)o2)cs1 | 15.97
COc1cc2cc3c(nc2cc1OC)OCCN(Cc1ccco1)C3 | 10.76

10 of the entries, repeated:

| Compound | Inhibition |
|---|---|
| `CC(C)c1nc(C2CCCN(Cc3nnc(C4CC4)o3)C2)no1` (centres undefined) | 4.196 |
| `Cc1nc(C)n(CCCNC(=O)C(C)n2ccnc2C(C)C)n1` (centres undefined) | 15.32 |
| `CN1CC2(CCN(Cc3ccoc3)CC2)COc2ccccc2S1(=O)=O` | 15.99 |
| `CN(Cc1ccccc1)C1(C(=O)NCC(N)=O)Cc2ccccc2C1` | -3.425 |
| `Fc1cc(CNc2nncs2)ccc1Cl` | 12.23 |
| `CC(C)OC(=O)N1CCC(Cc2cccc(C(N)=O)c2)C1` (centres undefined) | 4.682 |
| `Cc1ncc2c(n1)CN(C(C(N)=O)c1ccccc1)CC2` (centres undefined) | 15.32 |
| `COc1ccc2cc(C(=O)NCCc3nc(C)no3)[nH]c2c1` | 4.7 |
| `CCC(C)c1noc(C2CCN(C(=O)Cn3nc(C)cc3C)CC2)n1` (centres undefined) | -28.89 |
| `O=C(C1CSc2ccccc2O1)N1CCN(CCO)CC1` (centres undefined) | 8.871 |